Test results: publication PMC10788198
Results are given in words; binding and its absence hold for the method and conditions named. In cells and extracts the contact can be indirect. Some results given as binding are weak or reduced against the parent protein; the word gives no strength.

Amino acid sequences for entries named in this document (tags omitted).
UniProt Q9UKE5: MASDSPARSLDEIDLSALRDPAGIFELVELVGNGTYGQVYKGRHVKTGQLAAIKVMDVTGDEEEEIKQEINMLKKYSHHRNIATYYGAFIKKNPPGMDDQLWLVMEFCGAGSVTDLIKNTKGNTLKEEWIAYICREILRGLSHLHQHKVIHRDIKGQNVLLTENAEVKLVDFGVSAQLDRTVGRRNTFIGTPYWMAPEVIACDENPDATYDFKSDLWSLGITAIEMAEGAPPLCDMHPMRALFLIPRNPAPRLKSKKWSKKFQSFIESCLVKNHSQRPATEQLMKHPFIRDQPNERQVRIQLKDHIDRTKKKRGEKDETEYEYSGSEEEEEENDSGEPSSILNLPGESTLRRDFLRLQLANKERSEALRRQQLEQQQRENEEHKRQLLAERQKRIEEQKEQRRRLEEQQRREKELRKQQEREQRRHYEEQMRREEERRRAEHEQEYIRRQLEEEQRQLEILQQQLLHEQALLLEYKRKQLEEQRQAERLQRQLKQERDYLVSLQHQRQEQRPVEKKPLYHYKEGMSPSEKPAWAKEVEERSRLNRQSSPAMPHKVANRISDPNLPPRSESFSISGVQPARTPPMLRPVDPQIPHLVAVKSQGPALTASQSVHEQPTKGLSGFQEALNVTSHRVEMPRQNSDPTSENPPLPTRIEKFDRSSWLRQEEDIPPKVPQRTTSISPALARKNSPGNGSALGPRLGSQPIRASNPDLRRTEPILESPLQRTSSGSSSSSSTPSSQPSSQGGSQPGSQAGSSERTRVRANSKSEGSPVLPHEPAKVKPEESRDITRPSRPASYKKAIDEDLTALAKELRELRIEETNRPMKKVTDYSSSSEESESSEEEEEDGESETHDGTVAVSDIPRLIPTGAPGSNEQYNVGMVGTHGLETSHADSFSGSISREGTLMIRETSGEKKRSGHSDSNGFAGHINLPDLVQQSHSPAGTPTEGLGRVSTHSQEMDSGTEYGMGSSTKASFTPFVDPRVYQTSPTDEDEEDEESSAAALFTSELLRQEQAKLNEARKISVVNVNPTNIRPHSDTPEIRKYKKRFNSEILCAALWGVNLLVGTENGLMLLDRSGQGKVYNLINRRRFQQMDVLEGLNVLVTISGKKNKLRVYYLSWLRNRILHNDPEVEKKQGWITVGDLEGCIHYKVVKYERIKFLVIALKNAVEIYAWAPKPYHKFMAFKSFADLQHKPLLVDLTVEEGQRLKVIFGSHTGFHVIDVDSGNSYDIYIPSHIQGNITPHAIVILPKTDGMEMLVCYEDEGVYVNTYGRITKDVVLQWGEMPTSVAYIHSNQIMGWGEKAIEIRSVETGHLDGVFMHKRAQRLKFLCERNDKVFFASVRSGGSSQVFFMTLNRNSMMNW

Target: Traf2- and Nck-interacting kinase (TNIK), endogenous (human (endogenous in C4-2)) (UniProt Q9UKE5)
Test: co-IP; endogenous proteins; immunoprecipitation of TNIK (and of EGFR) from C4-2 lysates, immunoblot of EGFR or TNIK

- binding: binds
Substance: epidermal growth factor receptor (EGFR), endogenous (from UniProt P00533 25-1210)
